Reference: publication PMC5462101 (Future medicinal chemistry, 2015)

Assay: Inhibition of linoleic acid peroxidation (AAPH)
Conditions: AAPH assay, versus pteridine 9
Source text: Azo compounds that generate free radicals through spontaneous thermal decomposition are useful for in vitro studies of free radical production. The water-soluble AAPH has been extensively used as a clean and controllable source of thermally produced alkylperoxyl free radicals. […] Evidently, the presence of 6,7-dimethyl groups on the pteridine ring greatly enhances protection against lipid peroxidation; the nature of the alkyl group and ring size on the 2-substituent has some, but much less, effect. […] The role of lipophilicity (as assessed from calculated clogP values; Table 1) is not clear, but substituent bulk plays a significant role.
Inhibition of linoleic acid peroxidation
Production of conjugated diene hydroperoxide by oxidation of linoleic acid in an aqueous dispersion was monitored at 234 nm. 2,2’-Azobis(2-amidinopropane) dihydrochloride (AAPH) was used as a free radical initiator. This assay was used to follow oxidative changes and to determine the inhibition of the peroxidation of sodium linoleate by each tested compound. […] In the assay without antioxidant, lipid oxidation was measured in the presence of DMSO (10 μL). The rate of oxidation at 37 °C was monitored by recording the increase in absorption at 234 nm caused by conjugated diene hydroperoxide formation (Table 2).
IC50 determinations. […] The SEM is the calculated standard error in the IC50 value of the fitted line.

Compound | Decrease of potency in protection of lipid peroxidation relative to compound 9
CCN1CCNc2nc(N3CCN(C)CC3)nc(N3CCN(C)CC3)c21 [Compound 10a] | 13 fold
CCN1CCN(CC)c2c1nc(N1CCN(C)CC1)nc2N1CCN(C)CC1 [Compound 10b] | 20 fold
